# Values from PubChem BioAssay AID720505 (Drosophila RNAi Screening Center, 2013)
# Test: 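Fly regulators or components of the CRAC channel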 (primary screen)
# System: Drosophila S2R+ cells
# Knock-down reagent: long dsRNA against Drosophila genes
# Conditions: thapsigargin (2 µM) in calcium-free buffer to empty internal stores, then 2 mM calcium added back
# Detection: 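Fluo-4 signal in 384-well plates read on a FLIPR after thapsigargin (2 µM, calcium-free) store depletion and 2 mM calcium add-back; unnormalised mean endpoint per well; screen run twice, selected wells retested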
# Direction: calcium signal and retest calcium signal: higher = more calcium entry after store depletion
# Hit rule: 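Knock-downs counted as hits when calcium entry dropped relative to STIM1 positive and Rho1 negative controls present on each plate; roughly 1500 genes called, with reductions of differing size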
# Meaning of the calls: active = called as lowering calcium entry; inactive = not called
# In all, the deposit lists about 20,000 reagents; below is an unselected part of those that have a named target and a result. Over the whole deposit, about 2,100 (10%) were called active. 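Raw plate signals without normalisation; calls rest on control-based scores that were not deposited; replicate 2 separates called from uncalled poorly.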 The numbers tell different reagents against one gene apart. A plus sign joins genes that one reagent is predicted to hit. Not given: the amount of reagent, the time to read-out.
Gene,dsRNA no.,"calcium signal, replicate 1","calcium signal, replicate 2","retest calcium signal, replicate 1","retest calcium signal, replicate 2",activity call
yl,1,82.3,120,,,inactive
cd,1,91.5,154,,,inactive
CG32432,1,95.2,128,,,inactive
CG32432,2,104,142,,,inactive
CG32432,3,124,140,,,inactive
CG33722 + CG18749,1,92.5,125,,,inactive
TrpRS,1,109,93.9,,,inactive
CG4982,1,101,133,,,inactive
Cog8,1,106,137,,,inactive
eIF2Bbeta,1,93.6,176,,,inactive
CG5662,1,152,152,,,inactive
CG4629,1,164,122,,,inactive
Wdr62,1,87.5,192,,,inactive
Wdr62,2,91.2,135,,,inactive
Wdr62,3,141,289,,,inactive
Wdr62,4,81.6,175,,,inactive
Tmtc1,1,82.5,132,,,inactive
Tmtc1,2,115,129,,,inactive
Tmtc1,3,192,154,,,inactive
Tmtc1,4,183,148,,,inactive
CG3552,1,69.3,94.6,,,inactive
TTLL6B,1,119,154,,,inactive
CG17564,1,162,90.9,,,inactive
Mkrn1,1,107,215,111,96.7,inactive
Cby,1,245,175,,,inactive
ec,1,146,81.4,,,inactive
GATAe,1,147,182,95.6,120,inactive
GATAe,2,127,137,,,inactive
ReepA,1,174,95,,,inactive
ReepA,2,106,192,,,inactive
Rbp6,1,81.3,131,,,inactive
Rbp6,2,88.6,131,,,inactive
Rbp6,3,107,141,,,inactive
CG1537,1,116,90.6,,,inactive
hll,1,55.9,124,,,active
CG32847,1,84.5,161,,,inactive
kl-3 (retired record),1,82,11410,,,inactive
kl-3 (retired record),2,205,95.8,,,inactive
kl-3 (retired record),3,138,10219,,,inactive
Mlp84B,1,127,179,,,inactive
Swim,1,108,89.8,,,inactive
CG8289,1,181,114,,,inactive
RhoGAP93B,1,232,158,,,inactive
CG14154,1,81.6,63.2,,,inactive
CG14300,1,156,195,,,inactive
RhoBTB,1,127,120,,,inactive
Lint-1 + rtv,1,135,73.2,,,inactive
jigr1,1,114,124,,,inactive
jigr1,2,93,244,,,inactive
sced,1,163,95.5,,,inactive
Gr64b + Gr64c,1,113,100,,,inactive
Gr64b + Gr64c,2,104,92.6,,,inactive
CG10969,1,52.2,81.1,,,inactive
Pde8,1,144,87,,,inactive
UK114,1,118,111,,,inactive
Zmynd8,1,103,164,,,inactive

Hits (from the list above):
Gene,dsRNA no.,"calcium signal, replicate 1","calcium signal, replicate 2","retest calcium signal, replicate 1","retest calcium signal, replicate 2",activity call
hll,1,55.9,124,,,active
